The values below are quoted from earlier work in paper PMC8494430, “Development of a fluorogenic ADAMTS-7 substrate” (Journal of Enzyme Inhibition and Medicinal Chemistry, 2021).

Sequences of proteins named here, by UniProt entry; tags and fusion partners are left off. Residues count along the entry.
UniProt Q9UNA0, 262-930 limits assumed: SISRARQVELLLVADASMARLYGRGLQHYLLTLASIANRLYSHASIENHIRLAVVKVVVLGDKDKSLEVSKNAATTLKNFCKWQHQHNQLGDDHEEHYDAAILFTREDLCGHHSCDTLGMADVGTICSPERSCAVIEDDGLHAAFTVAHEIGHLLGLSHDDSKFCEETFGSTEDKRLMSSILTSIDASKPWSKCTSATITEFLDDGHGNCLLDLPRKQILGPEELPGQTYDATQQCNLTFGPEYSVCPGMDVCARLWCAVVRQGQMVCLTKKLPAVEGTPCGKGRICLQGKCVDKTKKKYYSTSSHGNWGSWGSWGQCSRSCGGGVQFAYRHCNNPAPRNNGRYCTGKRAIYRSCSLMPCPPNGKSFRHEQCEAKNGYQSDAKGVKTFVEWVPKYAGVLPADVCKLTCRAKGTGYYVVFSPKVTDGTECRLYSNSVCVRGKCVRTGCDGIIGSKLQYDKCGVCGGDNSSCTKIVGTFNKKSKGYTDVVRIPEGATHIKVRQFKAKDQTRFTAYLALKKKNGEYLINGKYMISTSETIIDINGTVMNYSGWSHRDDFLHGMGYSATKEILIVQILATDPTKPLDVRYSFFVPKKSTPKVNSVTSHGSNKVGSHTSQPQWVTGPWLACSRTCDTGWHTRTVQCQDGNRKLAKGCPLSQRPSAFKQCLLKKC

SMILES strings stand for the structures. Structures were worked out from names or drawings and are uncertain.

For this series, the target named is ADAMTS-5 (Homo sapiens, UniProt Q9UNA0). Particulars: read-out: Km of substrate for ADAMTS-5; used for Cheng-Prusoff, [S] 40; ref 2 (Supplementary References); cited from earlier work.

`CC[C@H](C)[C@H](NC(=O)[C@H](C)NC(=O)CNC(=O)[C@H](CCCNC(=N)N)NC(=O)[C@H](CO)NC(=O)[C@H](CCC(=O)O)NC(=O)[C@H](CO)NC(=O)[C@H](CCC(=O)O)NC(=O)[C@@H](NC(=O)c1ccccc1N)[C@@H](C)O)C(=O)N[C@@H](Cc1ccc(O)cc1)C(=O)N[C@@H](CNc1ccc([N+](=O)[O-])cc1[N+](=O)[O-])C(=O)N[C@@H](CCCCN)C(=O)N[C@@H](CCCCN)C(=O)O`: the Michaelis constant (Km) (as a rule, the concentration of substrate that gives half-maximal velocity) was 76 µM.
